This is an account of results in PMC8410870.

The chains behind the UniProt entries cited, without tags or fusion partners.
UniProt Q8TDY2: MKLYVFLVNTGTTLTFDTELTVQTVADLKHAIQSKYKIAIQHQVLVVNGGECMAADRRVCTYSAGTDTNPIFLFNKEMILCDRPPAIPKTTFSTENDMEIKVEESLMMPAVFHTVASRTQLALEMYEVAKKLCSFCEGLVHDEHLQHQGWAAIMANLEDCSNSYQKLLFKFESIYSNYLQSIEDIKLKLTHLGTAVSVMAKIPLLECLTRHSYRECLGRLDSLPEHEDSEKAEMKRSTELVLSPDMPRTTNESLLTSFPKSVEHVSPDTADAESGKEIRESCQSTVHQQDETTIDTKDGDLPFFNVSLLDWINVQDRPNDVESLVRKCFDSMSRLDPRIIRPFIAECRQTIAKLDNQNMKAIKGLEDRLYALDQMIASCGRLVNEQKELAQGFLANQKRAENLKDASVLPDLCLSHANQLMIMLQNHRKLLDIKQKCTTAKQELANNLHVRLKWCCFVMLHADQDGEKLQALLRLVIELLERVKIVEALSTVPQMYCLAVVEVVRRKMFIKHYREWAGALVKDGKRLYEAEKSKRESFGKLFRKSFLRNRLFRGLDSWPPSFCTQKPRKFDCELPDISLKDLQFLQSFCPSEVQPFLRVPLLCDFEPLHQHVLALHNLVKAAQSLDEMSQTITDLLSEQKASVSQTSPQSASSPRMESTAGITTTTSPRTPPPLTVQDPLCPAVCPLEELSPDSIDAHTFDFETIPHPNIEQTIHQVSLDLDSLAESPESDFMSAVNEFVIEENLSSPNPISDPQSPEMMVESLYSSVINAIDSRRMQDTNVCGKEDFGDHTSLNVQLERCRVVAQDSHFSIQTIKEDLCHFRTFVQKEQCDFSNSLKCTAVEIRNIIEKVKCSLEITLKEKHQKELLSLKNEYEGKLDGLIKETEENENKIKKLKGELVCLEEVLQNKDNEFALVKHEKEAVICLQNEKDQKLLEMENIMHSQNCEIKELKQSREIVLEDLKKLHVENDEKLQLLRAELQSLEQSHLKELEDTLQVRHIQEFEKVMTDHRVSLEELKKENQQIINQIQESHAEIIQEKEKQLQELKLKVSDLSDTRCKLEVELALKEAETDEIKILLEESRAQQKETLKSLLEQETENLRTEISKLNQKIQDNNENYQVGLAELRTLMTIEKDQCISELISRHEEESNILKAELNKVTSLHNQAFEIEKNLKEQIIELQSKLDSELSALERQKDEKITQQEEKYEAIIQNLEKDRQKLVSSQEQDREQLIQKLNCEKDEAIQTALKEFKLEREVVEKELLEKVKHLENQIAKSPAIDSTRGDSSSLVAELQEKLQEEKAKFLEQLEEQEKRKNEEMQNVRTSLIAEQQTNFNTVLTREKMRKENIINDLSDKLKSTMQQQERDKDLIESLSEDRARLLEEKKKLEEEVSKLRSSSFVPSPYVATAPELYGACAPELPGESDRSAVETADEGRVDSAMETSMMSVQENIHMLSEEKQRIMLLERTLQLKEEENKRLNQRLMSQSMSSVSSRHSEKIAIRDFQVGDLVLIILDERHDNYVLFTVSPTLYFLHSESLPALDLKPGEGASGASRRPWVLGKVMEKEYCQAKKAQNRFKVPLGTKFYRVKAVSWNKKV

Experiment [1] deals with GST-TAX1BP1 (human) (UniProt Q86VP1). As to the kind of experiment: pull-down; microscopy-based protein-protein interaction assay: GST-tagged bait saturated on Glutathione Sepharose 4B beads, fluorescent prey at 2 µM, 25 mM HEPES pH 7.5, 150 mM NaCl, 1 mM DTT, 30 min-1 h at room temperature, beads imaged at the equilibrium by confocal microscopy; both purified.
For experiment [2], the target named is T1, endogenously tagged GFP-AID-NBR1 (human (endogenous in HAP1)) (UniProt Q14596).
T1 sequence: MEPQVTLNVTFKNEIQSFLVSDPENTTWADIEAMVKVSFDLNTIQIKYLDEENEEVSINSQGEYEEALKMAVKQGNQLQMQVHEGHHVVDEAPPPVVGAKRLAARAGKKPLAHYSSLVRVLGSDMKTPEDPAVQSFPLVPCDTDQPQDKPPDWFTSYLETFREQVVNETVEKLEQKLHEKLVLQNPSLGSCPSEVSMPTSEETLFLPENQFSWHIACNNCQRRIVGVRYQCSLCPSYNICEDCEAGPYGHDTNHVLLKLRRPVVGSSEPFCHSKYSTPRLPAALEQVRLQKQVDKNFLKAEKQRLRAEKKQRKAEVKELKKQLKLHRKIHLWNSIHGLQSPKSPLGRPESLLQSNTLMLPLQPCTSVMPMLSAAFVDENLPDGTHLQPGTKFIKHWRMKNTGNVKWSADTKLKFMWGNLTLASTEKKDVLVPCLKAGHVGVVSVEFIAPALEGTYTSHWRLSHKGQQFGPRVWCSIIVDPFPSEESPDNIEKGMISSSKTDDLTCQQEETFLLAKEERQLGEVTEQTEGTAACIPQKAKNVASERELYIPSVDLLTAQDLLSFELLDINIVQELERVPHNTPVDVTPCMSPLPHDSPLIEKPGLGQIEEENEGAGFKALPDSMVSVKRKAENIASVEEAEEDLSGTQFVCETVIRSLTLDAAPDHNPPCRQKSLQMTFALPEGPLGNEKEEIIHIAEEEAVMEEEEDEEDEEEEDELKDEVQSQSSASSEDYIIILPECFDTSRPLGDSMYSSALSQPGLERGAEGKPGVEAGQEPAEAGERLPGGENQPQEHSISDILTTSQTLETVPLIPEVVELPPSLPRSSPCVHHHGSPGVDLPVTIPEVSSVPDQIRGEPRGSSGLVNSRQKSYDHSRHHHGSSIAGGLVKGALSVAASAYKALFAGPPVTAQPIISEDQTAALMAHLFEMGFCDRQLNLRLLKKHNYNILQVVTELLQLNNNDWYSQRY
As to the kind of experiment: co-IP; lysates of HAP1 WT and GFP-AID-NBR1 cells on GFP-trap magnetic beads, 1 h at 4 °C, washed in 25 mM Hepes pH 7.5, 125 mM NaCl, 0.05% Triton X 100; western blot.

The target of experiment [3] is GST-TAX1BP1 (human) (UniProt Q86VP1). Kind of experiment: pull-down; microscopy-based pull-down followed over time: GST-TAX1BP1 on glutathione beads with 2 µM mCherry-p62 for 30 min, then GFP-NBR1 (2 µM) added and imaged for 30 min (one image every 2 min); reactions without GFP-NBR1 or without mCherry-p62 as controls; both purified.

These are yes or no findings as the source states them, for the method shown. For part of these data: In cells and extracts the contact can be indirect. Some results given as binding are weak or reduced against the parent protein; the word gives no strength. For part of these data: Sequences can lack the tags named with a protein.

Consider GFP-p62 WT (from UniProt Q13501 1-440), for which the binding entry in the experiment with GST-TAX1BP1 (human) [1] is listed as “binds weakly”.

In the case of “FIP200 (endogenous) (from UniProt Q8TDY2 1-1594)”, the binding entry in experiment [2] is “binds”.

As for “mCherry-p62 WT (from UniProt Q13501 1-440)”, the binding entry in the experiment with GST-TAX1BP1 (human) [3] is given as “binds weakly”.
